Reference: PubChem BioAssay AID504804 (Drosophila RNAi Screening Center, 2011)
Aim: 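dsRNAs that improve Kc cell survival under doxorubicin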 (primary screen). Cell system: Drosophila Kc cells. Reagents: long dsRNA against Drosophila genes, 0.5 µg dsRNA per well. Timing: 96 h (48 h knock-down, then 48 h drug). Treatment: doxorubicin 5 µg/ml for 48 h, added 48 h after dsRNA. Measurement: 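Viability measured as cellular ATP by luminescence after 48 h knock-down then 48 h doxorubicin at 5 µg/ml; unnormalised plate counts for each replicate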. Direction: raw ATP luminescence: higher = more viable cells, protection from doxorubicin. Hit rule: 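z-score of 2 or more over plate mean in both duplicates, retained only when retests and separate dsRNAs confirm the protection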.
The screen tested about 19,000 reagents; shown is a random part of those that have a named target and a result. Of all reagents, 47 (0.25%) are marked active. 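Signals are raw, not normalised; exact z-scores behind calls not deposited; actives needed confirmation, so some wells reaching 2 SD are inactive.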 A plus sign joins genes that one reagent is predicted to hit.

no.	target	dsRNA	SD above plate mean	raw ATP luminescence, replicate 1	raw ATP luminescence, replicate 2	call
1	CG13055	DRSC09936		48173	38967	inactive
2	CG14253	DRSC14748		74590	43270	inactive
3	Oli	DRSC02866		85930	90207	inactive
4	GC1	DRSC15322		49300	37050	inactive
5	CG9899	DRSC04597		47580	60190	inactive
6	Tim17a1	DRSC14184		58610	46170	inactive
7	CG18659	DRSC06784		55707	81293	inactive
8	CG32053	DRSC10683		35663	41897	inactive
9	CG15056	DRSC19630		3.89e5	2.94e5	inactive
10	Dll	DRSC04610		35183	56750	inactive
11	CG15641	DRSC19677		3.52e5	3.16e5	inactive
12	Gk1	DRSC08533		52210	64107	inactive
13	Taf2	DRSC11298		33997	29543	inactive
14	obst-F	DRSC10805		65420	64030	inactive
15	aspr	DRSC20689		3.89e5	3.68e5	inactive
16	aspr	DRSC20690		3.46e5	3.49e5	inactive
17	vari	DRSC03202		67797	60687	inactive
18	CG7530	DRSC16255		80923	44830	inactive
19	dap	DRSC07601		71663	52713	inactive
20	aust	DRSC02558		39363	88253	inactive
21	Nepl7	DRSC02495		87467	75083	inactive
22	TAF1B	DRSC16001		59160	21100	inactive
23	CG34204	DRSC03897		58123	53353	inactive
24	CG34327	DRSC19517		2.58e5	2.65e5	inactive
25	sqa	DRSC06693		67110	50597	inactive
26	CG12729	DRSC17884		48790	37700	inactive
27	Trap1	DRSC05019		78720	71293	inactive
28	Zwilch	DRSC15376		47460	45780	inactive
29	CG12590	DRSC12216		67537	65573	inactive
30	Pep	DRSC11252		29953	23463	inactive
31	Pde11	DRSC02028		2.17e5	2.21e5	inactive
32	Pde11	DRSC02460		28917	25290	inactive
33	CG10435	DRSC14246		66320	24697	inactive
34	Vha100-4	DRSC16282		59760	67020	inactive
35	Tsen2	DRSC01557		2.19e5	2.56e5	inactive
36	CG9389	DRSC11857		16920	16867	inactive
37	CG13445	DRSC09992		36197	27223	inactive
38	Tbp	DRSC04662		58133	48070	inactive
39	Ntmt	DRSC06624		34437	57470	inactive
40	euc	DRSC14492		38140	32460	inactive
41	CG4882	DRSC04495		58493	51060	inactive
42	Cdc27	DRSC11112		36123	33290	inactive
43	Nap1	DRSC04626		68950	61820	inactive
44	CG14740	DRSC14960	at least 3 SD above plate mean	1.09e5	55227	active
45	Spn42Dc	DRSC05010		23880	1.10e5	inactive
46	CG15740	DRSC19706		82130	81680	inactive
47	PQBP1	DRSC14393		43587	54483	inactive
48	CG12347	DRSC14502		39180	40340	inactive
49	Tsp42Ep	DRSC06871		73290	66717	inactive
50	eRF1	DRSC11779		24850	30047	inactive
51	CG13843	DRSC14693		72260	69410	inactive
52	CG15841 (retired record) + Acp33A	DRSC01859		37590	75660	inactive
53	pirk	DRSC04269		69190	69793	inactive
54	Kdm2	DRSC14286		65653	43000	inactive
55	eff	DRSC16940		55100	55050	inactive
56	CrebA	DRSC11122		31040	29633	inactive
57	CG32202	DRSC09989		59923	51717	inactive
